{"source": "PubChem BioAssay AID1224830 – NIAID, 2016", "assay": "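Regulators of TLR4 signalling towards TNF-alpha in macrophage-like cells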 (primary screen)", "cells": "human THP-1 monocytic leukaemia cells, TNF dual-luciferase reporter clone, PMA-differentiated to macrophage-like cells", "reagent": "siRNA pool against human genes, 50 nM", "time to read-out": "LPS for 4 h, given about 3 days after siRNA transfection", "challenge": "bacterial LPS (TLR4 ligand), 10 ng/ml", "measurement": "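TNF firefly reporter luminescence divided by renilla, normalised to the plate median, then turned into a robust z-score for each replicate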", "direction": "TNF reporter robust z-score: higher = stronger TNF reporter response to LPS", "rule for the call": "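Each well counts as active if its z-score is over 2.8 or under -1.5; controls are left without a call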", "note": "Here is one part, drawn at random, of about 18,000 deposited reagents. Of all reagents, about 2,900 (16%) are marked active. 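Calls are made per well; low scores hint the gene aids the LPS response, high scores that it dampens it.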 Repeated entries: four replicate wells of each siRNA pool."}
{"Target gene":"CD180","TNF reporter robust z-score":-0.7,"activity call":"inactive"}
{"Target gene":"CD180","TNF reporter robust z-score":0.41,"activity call":"inactive"}
{"Target gene":"CD180","TNF reporter robust z-score":0.35,"activity call":"inactive"}
{"Target gene":"CD180","TNF reporter robust z-score":-0.1,"activity call":"inactive"}
{"Target gene":"XCL2","TNF reporter robust z-score":-0.9,"activity call":"inactive"}
{"Target gene":"XCL2","TNF reporter robust z-score":-1.01,"activity call":"inactive"}
{"Target gene":"XCL2","TNF reporter robust z-score":-0.87,"activity call":"inactive"}
{"Target gene":"XCL2","TNF reporter robust z-score":-0.5,"activity call":"inactive"}
{"Target gene":"TMCC2","TNF reporter robust z-score":1.98,"activity call":"inactive"}
{"Target gene":"TMCC2","TNF reporter robust z-score":2.79,"activity call":"inactive"}
{"Target gene":"TMCC2","TNF reporter robust z-score":0.05,"activity call":"inactive"}
{"Target gene":"TMCC2","TNF reporter robust z-score":-0.73,"activity call":"inactive"}
{"Target gene":"SLF2","TNF reporter robust z-score":0.14,"activity call":"inactive"}
{"Target gene":"SLF2","TNF reporter robust z-score":-0.49,"activity call":"inactive"}
{"Target gene":"SLF2","TNF reporter robust z-score":0.33,"activity call":"inactive"}
{"Target gene":"SLF2","TNF reporter robust z-score":-1.48,"activity call":"inactive"}
{"Target gene":"PRR15","TNF reporter robust z-score":2.54,"activity call":"inactive"}
{"Target gene":"PRR15","TNF reporter robust z-score":2.09,"activity call":"inactive"}
{"Target gene":"PRR15","TNF reporter robust z-score":2.92,"activity call":"active"}
{"Target gene":"PRR15","TNF reporter robust z-score":3.6,"activity call":"active"}
{"Target gene":"ABHD12B","TNF reporter robust z-score":0.16,"activity call":"inactive"}
{"Target gene":"ABHD12B","TNF reporter robust z-score":1.34,"activity call":"inactive"}
{"Target gene":"ABHD12B","TNF reporter robust z-score":0.6,"activity call":"inactive"}
{"Target gene":"ABHD12B","TNF reporter robust z-score":0.87,"activity call":"inactive"}
{"Target gene":"STRN","TNF reporter robust z-score":0.39,"activity call":"inactive"}
{"Target gene":"STRN","TNF reporter robust z-score":0.51,"activity call":"inactive"}
{"Target gene":"STRN","TNF reporter robust z-score":0.46,"activity call":"inactive"}
{"Target gene":"STRN","TNF reporter robust z-score":-0.49,"activity call":"inactive"}
{"Target gene":"SOCS2","TNF reporter robust z-score":-1.52,"activity call":"active"}
{"Target gene":"SOCS2","TNF reporter robust z-score":-1.19,"activity call":"inactive"}
{"Target gene":"SOCS2","TNF reporter robust z-score":-0.77,"activity call":"inactive"}
{"Target gene":"CNNM2","TNF reporter robust z-score":-0.73,"activity call":"inactive"}
{"Target gene":"CNNM2","TNF reporter robust z-score":-0.24,"activity call":"inactive"}
{"Target gene":"CNNM2","TNF reporter robust z-score":-0.7,"activity call":"inactive"}
{"Target gene":"CNNM2","TNF reporter robust z-score":0,"activity call":"inactive"}
{"Target gene":"RPL19","TNF reporter robust z-score":-1.07,"activity call":"inactive"}
{"Target gene":"RPL19","TNF reporter robust z-score":-0.13,"activity call":"inactive"}
{"Target gene":"RPL19","TNF reporter robust z-score":-0.69,"activity call":"inactive"}
{"Target gene":"RPL19","TNF reporter robust z-score":-0.73,"activity call":"inactive"}
{"Target gene":"TMEM175","TNF reporter robust z-score":2.67,"activity call":"inactive"}
{"Target gene":"TMEM175","TNF reporter robust z-score":4.59,"activity call":"active"}
{"Target gene":"TMEM175","TNF reporter robust z-score":0.91,"activity call":"inactive"}
{"Target gene":"TMEM175","TNF reporter robust z-score":2.69,"activity call":"inactive"}
{"Target gene":"RIPPLY3","TNF reporter robust z-score":-0.26,"activity call":"inactive"}
{"Target gene":"RIPPLY3","TNF reporter robust z-score":0.46,"activity call":"inactive"}
{"Target gene":"RIPPLY3","TNF reporter robust z-score":-0.19,"activity call":"inactive"}
{"Target gene":"RIPPLY3","TNF reporter robust z-score":0.9,"activity call":"inactive"}

Laid out differently: results already given
{"Target gene": "TMEM175", "TNF reporter robust z-score": 4.59, "activity call": "active"}
{"Target gene": "TMEM175", "TNF reporter robust z-score": 0.91, "activity call": "inactive"}
{"Target gene": "TMEM175", "TNF reporter robust z-score": 2.69, "activity call": "inactive"}
{"Target gene": "RIPPLY3", "TNF reporter robust z-score": -0.26, "activity call": "inactive"}
{"Target gene": "RIPPLY3", "TNF reporter robust z-score": 0.46, "activity call": "inactive"}
